In PMC8357417, “CTP and parS coordinate ParB partition complex dynamics and ParA-ATPase activation for ParABS-mediated DNA partitioning” (eLife, 2021):

Molecular target: T1, ParBF (F plasmid (Escherichia coli)) (UniProt P62558)
T1 sequence (looked up, limits assumed): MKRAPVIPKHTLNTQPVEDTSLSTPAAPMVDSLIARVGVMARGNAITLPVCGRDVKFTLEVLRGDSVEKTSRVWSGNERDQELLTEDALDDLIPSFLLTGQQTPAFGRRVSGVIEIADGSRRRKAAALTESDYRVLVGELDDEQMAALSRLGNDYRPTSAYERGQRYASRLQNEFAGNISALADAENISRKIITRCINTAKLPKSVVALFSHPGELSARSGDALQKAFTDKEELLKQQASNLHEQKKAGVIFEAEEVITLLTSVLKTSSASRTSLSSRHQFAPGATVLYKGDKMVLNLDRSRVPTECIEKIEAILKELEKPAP
Assay: EMSA
Details: 0.1 nM DNA, KD only in figure; EMSA: 0.1 nM 32P-DNA, 4-12% acrylamide gel, 1x TBE + 5 mM Mg acetate, 4 C, 150 V, 1 h; recombinant protein; protein details: C-terminal His6; label: 32P (EMSA)

## AGTCTGGGACCACGGTCCCACTCG (double strand) [24 bp parSF (sopC consensus)]
  binding result: binds

For at least one entry, the source does not settle the construct or the ends of the probe. At least one verdict was read from the data and is not stated in words by the source. Tags and fusion partners may be left off the protein sequences shown.
